Reference: PubChem BioAssay AID588590 (National Center for Advancing Translational Sciences (NCATS), 2011)
“And” between values parts separate entries of the source, which are not always exact repeats. Identical values can stand only once. The whole screen tested about 390,000 compounds, of which about 4,000 (1%) were called active. Inconclusive results, whose numbers are uncertain, are shown with a selection of clear calls. Calls follow the shape of the dose curve; as a rule, active = well fitted inhibition curve with a large enough effect; inconclusive = small, poorly fitted or top-dose-only effect, or another doubt; inactive = no such curve, though single readings can be large or run the other way. Where the call is inconclusive, the potency comes from a doubtful curve fit.

By UniProt entry, the sequences of proteins in these tests, tags left out. Where a name states a change or a piece, a line headed by the entry shows the natural chain unless it says otherwise.
UniProt Q9UNA4: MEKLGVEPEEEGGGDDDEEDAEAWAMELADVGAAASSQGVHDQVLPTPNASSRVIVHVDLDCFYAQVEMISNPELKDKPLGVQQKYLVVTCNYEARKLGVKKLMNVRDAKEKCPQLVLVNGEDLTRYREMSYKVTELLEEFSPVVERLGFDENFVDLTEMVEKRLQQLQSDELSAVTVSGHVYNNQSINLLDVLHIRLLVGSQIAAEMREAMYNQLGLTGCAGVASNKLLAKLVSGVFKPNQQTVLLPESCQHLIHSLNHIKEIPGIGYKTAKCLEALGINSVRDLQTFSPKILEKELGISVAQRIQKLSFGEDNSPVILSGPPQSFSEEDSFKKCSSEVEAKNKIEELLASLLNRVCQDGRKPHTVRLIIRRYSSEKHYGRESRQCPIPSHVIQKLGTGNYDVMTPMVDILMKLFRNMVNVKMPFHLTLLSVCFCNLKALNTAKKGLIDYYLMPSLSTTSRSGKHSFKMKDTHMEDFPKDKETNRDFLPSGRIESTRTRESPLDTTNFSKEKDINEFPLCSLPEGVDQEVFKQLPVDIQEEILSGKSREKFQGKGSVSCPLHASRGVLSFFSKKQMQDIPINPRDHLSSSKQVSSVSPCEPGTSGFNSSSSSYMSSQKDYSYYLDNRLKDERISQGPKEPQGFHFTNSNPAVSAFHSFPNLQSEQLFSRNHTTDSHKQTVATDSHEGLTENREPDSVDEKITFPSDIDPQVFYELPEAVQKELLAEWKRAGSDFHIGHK

Target: DNA polymerase iota (Homo sapiens) (UniProt Q9UNA4)
Test: qHTS for Inhibitors of Polymerase Iota
Conditions: Pol iota fluorescent replication assay, 10 min; series mostly up to 115 µM
How it was run: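 Pol iota at 10 nM preincubated 15 min with compounds at room temperature; reaction started with fluorescent substrate, 50 nM final. Fluorescence read kinetically at 0 and 10 min; buffer-only wells as negative control.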
Potency is read from the fitted curve at half-maximal effect.

| Compound | Potency |
| --- | --- |
| CCOC(=O)c1cc(-c2ccc(/C=C3/C(=O)NC(=O)C(C#N)=C3C)o2)ccc1Cl | inconclusive: 15.8 µM [inhibitor, full curve, poor fit] |
| CS(=O)(=O)Nc1ccc(-c2nnc3n2CCCCC3)cc1 | inconclusive: 50.1 µM [inhibitor, partial curve, poor fit] |
| Cc1ccc(NC(=O)Cn2c(=O)n(Cc3nc(-c4ccccc4)no3)c(=O)c3ccccc32)c(C)c1 | inactive |
| Cc1c(C(=O)N2CCN(c3ccc(C(F)(F)F)cn3)CC2)oc2ccccc12 | inconclusive: 6.31 µM [inhibitor, single point] |
| O=C1OCCC1Sc1nc2ccccc2[nH]1 (centres undefined) | inconclusive: 79.4 µM [inhibitor, partial curve] |
| CC(=O)NC(Cc1cnc[nH]1)C(=O)O (centres undefined) | inconclusive: 5.01 µM [inhibitor, partial curve, poor fit] |
| Cc1ccc(OCC(=O)Nc2ccc(OCc3cc(=O)n4ccsc4n3)cc2)cc1C | inactive |
| CCC(=O)N1CCc2cc(S(=O)(=O)NC(Cc3ccccc3)C(=O)NCc3ccccc3)ccc21 (centres undefined) | inconclusive: 89.1 µM [inhibitor, single point] |
| COc1cc(CNCCN2CCOCC2)ccc1OCc1ccc(Cl)cc1 | inconclusive: 35.5 µM [inhibitor, full curve] |
| COc1ccccc1NC(=O)c1c(-c2ccc(C)cc2)nnc2ccccc12 | inactive |
| Cc1ccc2ccc3cc(C(=O)N4CCN(c5ccccc5F)CC4)nc3c2[nH]1 | inactive |
| COc1ccc(C(=O)NCC(c2cccnc2)N2CCN(c3ccccc3)CC2)cc1OC (centres undefined) | inconclusive: 70.8 µM [inhibitor, partial curve, poor fit] |
| CCOC(=O)C1CCCN(C(=O)c2ccc(CS(=O)(=O)c3ccc(C)cc3)o2)C1 (centres undefined) | active: 31.6 µM |
| CCC(C(=O)OCC(=O)Nc1ccc(SC(F)F)cc1)c1ccccc1 (centres undefined) | inactive |
| C=C(C)C(=O)OCCCCCCOc1ccc(C(=O)O)cc1 | active: 14.1 µM |
| COc1ccc(C)cc1NC(=O)CSc1nnc(-c2ccco2)n1Cc1ccco1 | inconclusive: 10 µM [inhibitor, full curve, poor fit] |
| Cc1ccc(/C=N/n2c(-c3ccccn3)n[nH]c2=S)o1 | active: 50.1 µM |
| Cc1cccc(-c2nc(SCc3cc(=O)c4c(C)cc(C)cc4[nH]3)n[nH]2)c1 | inconclusive: 100 µM [inhibitor, single point] |
| CC1(OC(=O)C2CCCC2)C(=O)C=C2C=C(c3ccsc3)OC=C2C1=O (centres undefined) | active: 44.7 µM |
| C=CCN(CC=C)C(=S)NC(=O)Cc1cccc2ccccc12 | inconclusive: 8.91 µM [inhibitor, partial curve, poor fit] |
| COc1cccc(NC(=O)Cn2nc(N3CCN(c4ccccc4)CC3)ccc2=O)c1 | inactive |
| COc1ccc(S(=O)(=O)N2CCC(c3nc4ccccc4s3)CC2)cc1OC | inconclusive: 100 µM [inhibitor, single point] |

| Compound | Potency |
| --- | --- |
| COc1cc(CNC(=O)c2cnc(C)cn2)cc(OC)c1 | inactive |
| COc1ccccc1Oc1cc(C#N)c(C#N)cc1-n1nnc2ccccc21 | inconclusive: 56.2 µM [inhibitor, full curve] |
| O=C(Cn1ncc2c3ccccc3n(Cc3ccccc3)c2c1=O)NCCc1ccc(Cl)cc1 | inactive |
| COC(=O)C1=C(C)N(CCCCCC(=O)O)C(=O)NC1c1ccccc1 (centres undefined) | inconclusive: 39.8 µM [inhibitor, single point] |
| COc1ccc(-c2cc(C(F)F)n3ncc(C(=O)NCC4CCCO4)c3n2)cc1 (centres undefined) | inconclusive: 28.2 µM [inhibitor, partial curve, poor fit] |
| COc1ccc(C2(SCC(N)C(=O)O)c3ccccc3-c3ccccc32)cc1 (centres undefined) | inconclusive: 17.8 µM [inhibitor, full curve] |
| COc1ccc(Cl)cc1S(=O)(=O)NC(C)C(=O)NCc1ccncc1 (centres undefined) | inconclusive: 89.1 µM [inhibitor, partial curve, poor fit] |
| O=C(NCc1cccc(C(F)(F)F)c1)c1cccc(S(=O)(=O)NCc2ccccc2)c1 | inconclusive: 89.1 µM [inhibitor, partial curve, poor fit] |
| CC(=O)Nc1ccc(NC(=O)CC2Nc3cccc4cccc(c34)NC2=O)cc1 (centres undefined) | inconclusive: 11.2 µM [inhibitor, partial curve, poor fit] |
| CC[C@@H](C)[C@@H]1CN([C@@H](CN2CCC[C@H]2CN2C(N)=NC[C@@H]2Cc2ccccc2)C(C)C)C(=N)N1CCCC1CCCC1 | inconclusive: 35.5 µM [inhibitor, single point] |
| C[C@H](CO)N1C[C@H](C)[C@@H](CN(C)S(=O)(=O)c2cccs2)Oc2c(NC(=O)c3ccncc3)cccc2C1=O | inconclusive: 20 µM [inhibitor, single point] |
| COc1cccc(CNC(=O)CCC(=O)n2ncc3cc(C)ccc32)c1OC | inactive |
| COc1cccc2cc(-c3nc4sc5c(c4c(=O)[nH]3)CCC(C(C)(C)C)C5)c(=O)oc12 (centres undefined) | inactive |
| N#Cc1c(NC(=O)c2ccc(Cn3cc(Br)cn3)o2)sc2c1CCCCCC2 | inconclusive: 20 µM [inhibitor, full curve] |
| Nc1nc(SCC(=O)Nc2ccccc2Sc2ccccc2)n[nH]1 | inconclusive: 14.1 µM [inhibitor, partial curve, poor fit] |
| COc1ccc(OC)c2sc(NC(=O)c3ccc(Br)s3)nc12 | inconclusive: 28.2 µM [inhibitor, single point] |
| COc1cccc(NC(=O)Cn2c(=O)oc3cc(S(=O)(=O)N4CCCCC4)ccc32)c1 | inconclusive: 89.1 µM [inhibitor, single point] |
| COc1cccc2c1C(=O)c1c(O)c3c(c(O)c1C2=O)CC(O)(C(C)=O)CC3OC1CC(O)C(O)C(C)O1 (centres undefined) | active: 44.7 µM |
| COCCN1C(=O)C(=O)/C(=C(/O)c2cccc(OC)c2)C1c1ccco1 (centres undefined) | inconclusive: 79.4 µM [inhibitor, partial curve, poor fit] |
| CCc1ccc(OCC(=O)NNC(=O)Cc2c(F)cccc2Cl)cc1 | inconclusive: 89.1 µM [inhibitor, single point] |
| Cc1ccccc1N(CC(=O)NC1CCCC1)C(=O)c1oc(C(C)(C)C)cc1C | inconclusive: 79.4 µM [inhibitor, partial curve, poor fit] |
| COc1cc(CN(C)CC2CCCN(CCc3ccc(F)cc3)C2)c(Cl)cc1O (centres undefined) | inconclusive: 31.6 µM [inhibitor, partial curve, poor fit] |

| Compound | Potency |
| --- | --- |
| Cc1nn(C)c(Sc2ccccc2N)c1[N+](=O)[O-] | inconclusive: 39.8 µM [inhibitor, single point] |
| C=CCn1c(SCc2cc([N+](=O)[O-])cc3c2OCOC3)nc2cc(C(=O)O)ccc2c1=O | inconclusive: 70.8 µM [inhibitor, single point] |
| CCCCC(=O)Nc1nnc(C)s1 | inconclusive: 79.4 µM [inhibitor, single point] |
| NNC(=O)c1ccc(CN2C(=O)c3cccc4cccc2c34)cc1 | inconclusive: 100 µM [inhibitor, single point] |
| CN(C)C=Nc1ncc2c3ccccc3n(CCN(C)C)c2c1C#N | inactive |
| C=CC(=O)Nc1cccc(Nc2nc(N[C@H]3CC[C@H](N(C)C)CC3)nc3c2ncn3C(C)C)c1 | inconclusive: 25.1 µM [inhibitor, single point] |
| COc1ccc(CNC(=O)C(=O)NCC(c2ccco2)S(=O)(=O)c2ccc(Cl)cc2)cc1 (centres undefined) | inactive |
| CC(=O)Nc1ccc(OCC(O)Cn2c3ccccc3c3ccccc32)c(C)c1 (centres undefined) | inconclusive: 39.8 µM [inhibitor, partial curve, poor fit] |
| CCOC(=O)c1cccc(NC(=O)Cn2ncc3c(=O)oc4ccccc4c32)c1 | inconclusive: 89.1 µM [inhibitor, partial curve, poor fit] |
| O=C(C1CC1)N(CCN(Cc1ccccc1)C(=O)C1CC1)Cc1ccccc1 | inconclusive: 39.8 µM [inhibitor, partial curve, poor fit] |
| O=S(=O)(c1ccc(F)cc1)n1ccc(-c2cccc(OCc3ccc(Cl)cc3Cl)c2)n1 | inconclusive: 39.8 µM [inhibitor, single point] |
| CCN(CC)S(=O)(=O)c1c(OC)cc(C)c(Cl)c1C | inconclusive: 25.1 µM [inhibitor, partial curve, poor fit] |
| CCc1ccc(C(=O)O)cc1 | inactive |
| Cc1ccc(Cl)cc1NC1=C/C(=N\S(=O)(=O)c2cccs2)c2ccccc2C1=O | active: 3.16 µM and active: 3.98 µM |
| Cc1cc2c(C)cc(=O)[nH]c2cc1NC(=O)CCl | inconclusive: 15.8 µM [inhibitor, partial curve, poor fit] |
| CC(C(=O)Nc1ccc2c(c1)OCCO2)N1Cc2ccccc2C1=O (centres undefined) | inactive |
| Cc1ccccc1NC(=O)Cn1nnc(S(=O)(=O)c2ccc(C(C)(C)C)cc2)c1N | inconclusive: 63.1 µM [inhibitor, partial curve, poor fit] |
| COc1ccc(N2CCN(CCCNC(=O)c3c(C)nn(-c4ccc(F)cc4)c3-n3cccc3)CC2)cc1 | inactive |
| COc1ccc(C(=O)Nc2ccc(S(=O)(=O)Nc3onc(C)c3C)cc2)cc1OC | inconclusive: 79.4 µM [inhibitor, single point] |
| COc1ccccc1NC(=O)N1CCN(c2ccc3nnc(-c4ccc(F)cc4)n3n2)CC1 | inconclusive: 44.7 µM [inhibitor, partial curve, poor fit] and inconclusive: 28.2 µM [inhibitor, partial curve, poor fit] |
